± gives the standard error. Many of these values have a large error.
B1: glmS ribozyme (parent)
chain: AUAAAAGCGCCAGAACUACAGAAAUGUAGUUGACGAGGAGGAGGUUUAUCGAAUUUUCGGCGGAUGCCUCCAAA

Variants of: B1
Test: self-cleavage kobs at 640 uM GlcN6P; higher = faster cleavage; RNA array
Conditions: with glucosamine-6-phosphate
Method in brief: (§1)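 Glucosamine-6-phosphate, from 40 μM to 10 mM in HEPES/KCl/Mg(OAc)2 buffer, was flowed over sequenced MiSeq chips carrying barcoded ribozyme variants transcribed in situ by E. coli RNA polymerase. A hybridised Cy3 probe tracked the variants at 37 °C as tiles were imaged over ~14 h. kobs, kcat and KM were obtained by fitting normalised per-tile medians to exponential decays and then applying weighted Michaelis–Menten fits across concentrations.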

Variant | self-cleavage kobs at 640 uM GlcN6P [s⁻¹]
G32C A39G | 2.33e-05 ± 1.8e-05
A52G U57A C70A | 3.37e-05 ± 2e-05
C10A C67U C71G | 6.59e-05 ± 3.5e-05
A14U C50G | 0.000584 ± 0.00032
C10U A42U G43U U56G G62U C71U | 3.66e-05 ± 2.8e-05
A42G C58G | 3.11e-05 ± 1.8e-05
A52G A64C C70A | 2.9e-05 ± 1.9e-05
U45C A48U | 3.62e-05 ± 1.9e-05
G40A C70U | 0.000343 ± 0.00018
G62U U69A | 2.71e-05 ± 1.7e-05
C34A A36G G38U U69G | 7.62e-05 ± 4.5e-05
G38U U49A C61U C70G | 4.45e-05 ± 3.8e-05
A6U C50G | 3.33e-05 ± 2e-05
A15U U54G C58A | 3.41e-05 ± 2.2e-05
G37A A53G U55G U65G | 2.88e-05 ± 2e-05
U54A U55A | 0.0216 ± 0.011
G43U C67U | 2.21e-05 ± 1.8e-05
G13U A14U G59C C68A | 2.46e-05 ± 2.4e-05
G29U U45C U46G | 4.34e-05 ± 2.7e-05
C16A C58A | 2.19e-05 ± 2.1e-05
G9A C11G A14G G62A C70G | 0.00139 ± 0.0011
C50A C71G | 2.55e-05 ± 2.2e-05
A12U G13U A53G C71G | 3.2e-05 ± 2.4e-05
A64C U69G | 2.13e-05 ± 1.6e-05
A14U C50U C67G | 3.55e-05 ± 2.4e-05
G41A U46A G66A | 4.7e-05 ± 2.6e-05

Variants of: B1
Test: self-cleavage kobs at 2500 uM GlcN6P; higher = faster cleavage; RNA array
Conditions: with glucosamine-6-phosphate
Method in brief: as §1

Variant | self-cleavage kobs at 2500 uM GlcN6P [s⁻¹]
U30A A36C C71G | 3.3e-05 ± 2.7e-05
A33G C70U C71U | 3.74e-05 ± 3.3e-05
G29U C50G | 4.52e-05 ± 2.7e-05
A14G A39G | 0.0733 ± 0.037
A12U U30A U31A G37C | 2.85e-05 ± 2.6e-05
A33U A39U U47G | 4.21e-05 ± 3e-05
G29U G38U C68A | 4.37e-05 ± 3.5e-05
C16G U56A C71G | 2.09e-05 ± 1.8e-05
G62U U69A | 2.44e-05 ± 1.9e-05
A12C A36C U54G | 0.00012 ± 6.3e-05
U54A U55A | 0.0595 ± 0.033
C16A G41U | 3.4e-05 ± 2.1e-05
A36U C58G C68A C70U | 3.31e-05 ± 3.2e-05
A14C A48U | 2.77e-05 ± 2.3e-05
G51U G60C C68A | 3.39e-05 ± 2.3e-05
A6U A15C C67U | 3.22e-05 ± 2.7e-05
A33G G38U U65A C70G | 4.32e-05 ± 2.6e-05
C34G C70A | 2.48e-05 ± 1.8e-05
C50A C71G | 2.72e-05 ± 1.7e-05
C16U U55G A64U | 2.84e-05 ± 2.6e-05
A15C C58U C61A | 4.64e-05 ± 2.5e-05
G29C A33G C68G | 4.76e-05 ± 3.5e-05
C16A U46A U55A | 1.98e-05 ± 1.6e-05
A14U A52U C61A C68U | 2.33e-05 ± 2.2e-05
C16U U56G C68G | 2.78e-05 ± 2e-05
G26U C50G A52C U56G G66C C67U C71U | 9.98e-05 ± 7.4e-05
A14U C50U C67G | 5.18e-05 ± 3.5e-05

Seven entries from above, in CSV form.
Variant,self-cleavage kobs at 2500 uM GlcN6P [s⁻¹]
G29U C50G,4.52e-05 ± 2.7e-05
A14G A39G,0.0733 ± 0.037
A12U U30A U31A G37C,2.85e-05 ± 2.6e-05
A33U A39U U47G,4.21e-05 ± 3e-05
G29U G38U C68A,4.37e-05 ± 3.5e-05
C16G U56A C71G,2.09e-05 ± 1.8e-05
G62U U69A,2.44e-05 ± 1.9e-05

Variants of: B1
Test: self-cleavage kobs at 160 uM GlcN6P; higher = faster cleavage; RNA array
Conditions: with glucosamine-6-phosphate
Method in brief: as §1

Variant | self-cleavage kobs at 160 uM GlcN6P [s⁻¹]
A53U G60A C70A | 2.34e-05 ± 2.3e-05
A12U C16A | 0.000322 ± 0.00017
C10A A14C C71A | 3.12e-05 ± 2.9e-05
A42G U45C C70U | 3e-05 ± 2.3e-05
C11G C50A C58U | 2.75e-05 ± 1.9e-05
G13U G29U | 2.1e-05 ± 1.1e-05
G51U G60C C68A | 2.54e-05 ± 2.3e-05
A15C A52G | 2.31e-05 ± 1.4e-05
C34G C70A | 2.05e-05 ± 1.9e-05
A64G C67G | 2.73e-05 ± 1.7e-05
U30C U47A | 2.17e-05 ± 1.2e-05
A52C C68A | 2.08e-05 ± 1.5e-05

Variants of: B1
Test: self-cleavage kobs at 40 uM GlcN6P; higher = faster cleavage; RNA array
Conditions: with glucosamine-6-phosphate
Method in brief: as §1

Variant | self-cleavage kobs at 40 uM GlcN6P [s⁻¹]
A33G C50G | 0.000532 ± 0.00027
C50G A52U C71A | 3.49e-05 ± 2.8e-05
U54G C67U C68U | 2.45e-05 ± 1.9e-05
A14C C58U C70G | 2.65e-05 ± 2.1e-05
A14G U49A U54G G62U C68A | 3e-05 ± 2.7e-05
C16U C58G C68G | 4.01e-05 ± 2.3e-05
A52G U55G U56G C67A U69G | 2.58e-05 ± 2.4e-05
U31G C67G | 2.06e-05 ± 1.5e-05
C67G C68G | 1.71e-05 ± 8.6e-06
G32U G62U U69A | 3.18e-05 ± 2.9e-05
A14U C34U C68G | 3.71e-05 ± 2.2e-05
A42G A52G | 1.97e-05 ± 2e-05
U30A A52G | 2.23e-05 ± 1.6e-05
U30C G35C C50A C68A | 3.72e-05 ± 3e-05

Variants of: B1
Test: self-cleavage kobs at 10000 uM GlcN6P; higher = faster cleavage; RNA array
Conditions: with glucosamine-6-phosphate
Method in brief: as §1

Variant | self-cleavage kobs at 10000 uM GlcN6P [s⁻¹]
A33G C50G | 0.000873 ± 0.00052
G29U C50G | 2.64e-05 ± 1.4e-05
C50G A52U C71A | 2.46e-05 ± 2.4e-05
A52G U55G U56G C67A U69G | 2.4e-05 ± 2.2e-05
C16A G41U | 2.29e-05 ± 1.5e-05
C67G C68G | 0.000523 ± 0.00036
G9A C11G A14G G62A C70G | 4.35e-05 ± 2.2e-05
G32U G62U U69A | 2.79e-05 ± 1.6e-05

Variants of: B1
Test: KM; higher = weaker cofactor use; RNA array
Conditions: with glucosamine-6-phosphate
Method in brief: as §1

Variant | KM [µM]
A53U G59A | 1320 ± 870
C58A C71U | 3890 ± 1200
U56G C67A | 674 ± 450
U54A U56G | 1740 ± 650
G66A C67G | 2030 ± 1300
